Measurements published in PubChem BioAssay AID1347076 (National Center for Advancing Translational Sciences (NCATS), 2019).
The whole screen tested about 400,000 compounds, of which about 13,000 (3.2%) were called active. The shares of active, inactive and inconclusive entries below differ from those in the screen. Calls come from the whole dose curve; as a rule, active = well fitted cell-killing curve with a large enough effect; inconclusive = small, poorly fitted or top-dose-only effect, or effect the other way; inactive = flat fitted curve, though single readings scatter. A potency beside an inconclusive call is a rough fit, not a confirmed value.

assay: qHTS assay for MDR1-selective chemotherapeutics: Primary screen using the drug-selected MDR subline cells KB-V1; conditions: KB-V1 MDR cells viability, CellTiter-Glo, 72 h; activity change, negative = cytotoxicity: at 46.1 µM (top of the series); note: nearly all actives have a fitted effect of over 60% in size
In short: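 Cells of the MDR subline KB-V1 are plated, dosed with compound at multiple concentrations, and incubated 72 h at 37 degrees C; CellTiter-Glo is then added and luminescence read after 10 min.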
% is set by controls: 0 for no effect and ±100 for the full control effect; potency is the fitted concentration of half-maximal effect.

Row | SMILES | Potency | activity change, negative = cytotoxicity
1 | CCOc1ccc(-n2c(Cc3ccccc3)nnc2SCc2c(C)noc2C)cc1 | inconclusive: 10.3 µM [cytotoxic, partial curve] | –
2 | COCCNC(=O)c1nn(-c2ccc(C)cc2)c(=O)c2c1c1ccccc1n2C | – | inactive: -1.03%
3 | O=C(NCCNc1ccc([N+](=O)[O-])cc1)c1ccc(Cl)cc1 | inconclusive: 16.4 µM [cytotoxic, partial curve] | –
4 | Cc1ccc2c(c1)C1CN(C)CCC1N2C(=O)Nc1ccc(Cl)cc1 (stereo not given) | inconclusive: 25.9 µM [cytotoxic, single point] | –
5 | COc1ccc(N2CCN(Cc3nc(Cc4cccc(F)c4)no3)C(C)C2)cc1 (stereo not given) | – | inactive: 0%
6 | CCN(c1ccccc1)c1nc(C#N)nc(N(CC)c2ccccc2)n1 | inconclusive: 29.1 µM [cytotoxic, single point] | –
7 | Cc1nn(C)c(Oc2cccc(C(F)(F)F)c2)c1C=O | – | inactive: 5.68%
8 | CCC1(c2ccc(F)cc2)NC(=O)N(CC(=O)N2CCc3ccccc3C2)C1=O (stereo not given) | inconclusive: 9.2 µM [cytotoxic, partial curve, poor fit] | –
9 | Oc1ccc(Cl)cc1-c1cc(-c2ccco2)[nH]n1 | inconclusive: 23.1 µM [cytotoxic, partial curve, poor fit] | –
10 | COc1ccccc1OCCNC(=O)c1c(-c2ccccc2Cl)noc1C | inconclusive: 23.1 µM [cytotoxic, single point] | –
11 | COc1cc(OC)cc(-n2nnnc2SCC(=O)NCc2cccs2)c1 | inconclusive: 16.4 µM [cytotoxic, single point] | –
12 | COc1ccc(OCC(=O)NC2CCCc3ccccc32)cc1 (stereo not given) | – | inactive: -1.43%
13 | CC1=C(c2ccc(F)cc2)S(=O)(=O)N=C1N1CCC(C(=O)NCCc2cccc(C)c2)CC1 | – | inactive: 13.1%
14 | Cc1cc2n(c(=O)c1C#N)CCCN2c1ccccc1 | inconclusive: 23.1 µM [cytotoxic, single point] | –
15 | C[C@@H]1CCCCO[C@@H](CN(C)C(=O)c2ccccc2)[C@@H](C)CN([C@H](C)CO)C(=O)c2cc(N(C)C)ccc2O1 | – | inactive: -2.91%
16 | Cc1ccc2c(c1)c(C)c(C)n2CC(O)Cn1nc(C)c(Br)c1C (stereo not given) | – | inactive: -26.1%
17 | O=C(c1ccccc1)c1ccc(OCCO)cc1 | inconclusive: 4.11 µM [rising, full curve] | –
18 | Cc1cn([C@H]2C[C@H](O)[C@@H](/C=C/C(=O)NCC(c3ccccc3)c3ccccc3)O2)c(=O)[nH]c1=O | – | inactive: 14.3%
19 | Cc1cc(O)c(C=Nc2cccc(Cl)c2)c(=O)o1 | inconclusive: 8.2 µM [cytotoxic, single point] | –
20 | COc1ccc(Oc2coc3cc(OC(=O)c4cncc(Br)c4)ccc3c2=O)cc1 | inconclusive: 20.6 µM [rising, partial curve, poor fit] | –
21 | COc1ccc(C(=O)NCC(=O)OCC(=O)c2ccc3ccccc3c2)cc1 | – | inactive: -27.7%
22 | O=[N+]([O-])c1ccc(S(=O)(=O)Nc2nnc(C(F)(F)F)s2)cc1 | inconclusive: 29.1 µM [rising, single point] | –
23 | COc1ccc([N+](=O)[O-])cc1NC(=O)CSCc1cc(C)cc(C)c1 | – | inactive: -4.36%
24 | Cc1cccc(C)c1NC(=O)CN1CCN(CC(=O)NCC2(N3CCCCC3)CCCCC2)CC1 | – | inactive: 12.2%

Row | SMILES | Potency | activity change, negative = cytotoxicity
25 | C=CCn1c2ccccc2c(=O)c2cc(C#CC[C@@H](C)O)ccc21 | – | inactive: -12.9%
26 | NC(=O)c1cccc(-c2csc(C(O)c3cccc(Cl)c3)n2)c1 (stereo not given) | inconclusive: 23.1 µM [cytotoxic, single point] | –
27 | O=C(COC(=O)c1cc(=O)[nH]c2ccccc12)Nc1ccccc1F | inconclusive: 10.3 µM [rising, partial curve, poor fit] | –
28 | Fc1ccc(-c2[nH]ncc2-c2nnnn2-c2ccccc2)c(F)c1 | inconclusive: 18.4 µM [cytotoxic, single point] | –
29 | CCN(CC)CCCNC(=O)c1ccc(Cn2c(SCc3ccccc3)nc3cccnc32)cc1 | – | inactive: 0%
30 | Nc1ccc2nc(-c3ccccc3)sc2c1 | inconclusive: 25.9 µM [cytotoxic, partial curve, poor fit] | –
31 | COC(=O)c1cc2c(n1S(=O)(=O)c1ccc(C)cc1)C(=O)C(=O)c1[nH]cc(C(=O)OCc3ccccc3)c1-2 | active: 7.31 µM | –
32 | CCOC(=O)N1CCN(CCC(=O)Nc2cc(C)ccc2OC)CC1 | inconclusive: 18.4 µM [cytotoxic, single point] | –
33 | CS(=O)(=O)N(CCc1ccccc1)CC(=O)N1CCN(c2ccccc2F)CC1 | inconclusive: 18.4 µM [cytotoxic, single point] | –
34 | O=C(CN1CCN(CCC(=O)Nc2ccccc2F)CC1)Nc1ccc(Cl)cc1 | active: 4.61 µM | –
35 | CCn1c2ccccc2c2cc(NC(=O)CSc3nnc(-c4cccc(Cl)c4)o3)ccc21 | inconclusive: 18.4 µM [cytotoxic, partial curve, poor fit] | –
36 | Cc1ccccc1-c1cccc([C@@H]2C[C@H]3[C@H](CON3C)CN2Cc2cc(Cl)cc(Cl)c2)c1 | – | inactive: -18%
37 | O=C(COC(=O)c1ccco1)Nc1cccc(S(=O)(=O)N2CCOCC2)c1 | – | inactive: 19.6%
38 | COc1ccc(C)cc1NC(=O)CN1CCCC1c1ccc2c(c1)OCCCO2 (stereo not given) | inconclusive: 20.6 µM [cytotoxic, single point] | –
39 | O=C(CSc1ncc(-c2ccccc2)n1C1CCCC1)N1CCc2ccccc21 | inconclusive: 23.1 µM [cytotoxic, partial curve, poor fit] | –
40 | Cc1ccc(-c2nnc(N3CCCCCC3)c3ccccc23)cc1 | inconclusive: 32.6 µM [cytotoxic, partial curve, poor fit] | –
41 | COC(=O)c1ccccc1N=Nc1c(C)n[nH]c1C | inconclusive: 16.4 µM [cytotoxic, single point] | –
42 | CCCNC(=O)c1ccc2c(c1)ncn2-c1cc(C)cc(C)c1 | inconclusive: 8.2 µM [cytotoxic, partial curve] | –
43 | Cc1cc2c(cc1C)N(C(=O)CCl)CCN2C(=O)CCl | active: 7.31 µM | –
44 | CN(C)c1ccc(NC(=O)CSc2nc(C3CC3)nc3ccccc23)cc1 | inconclusive: 29.1 µM [cytotoxic, single point] | –
45 | Cc1ccc(Cn2c(=O)n(Cc3ccc(C(=O)NC4CCN(Cc5ccccc5)CC4)cc3)c(=O)c3ccccc32)cc1 | – | inactive: -8.82%
46 | CCOC(=O)c1cc2c(=O)n3ccccc3nc2n(Cc2ccccc2)c1=N | – | inactive: -0.469%
47 | COc1cc(C2CC(=O)c3cnc(N4CCN(Cc5ccccc5)CC4)nc3C2)cc(OC)c1OC (stereo not given) | inconclusive: 2.91 µM [cytotoxic, full curve] | –
48 | COc1ccc2c(c1)-c1c(sn(-c3ccccc3)c1=S)C(C)(C)N2 | inconclusive: 29.1 µM [cytotoxic, single point] | –

Row | SMILES | Potency | activity change, negative = cytotoxicity
49 | CCN(CC)CCN1C(=O)c2ccccc2NC1c1ccccc1F (stereo not given) | – | inactive: -28%
50 | Cc1nc2ccccc2n1CC(O)COCC1CC=CCC1 (stereo not given) | inconclusive: 29.1 µM [cytotoxic, single point] | –
51 | Cc1ccc(OCCN2CCN(c3nc(NCc4ccco4)c4ccccc4n3)CC2)cc1 | active: 16.4 µM | –
52 | CCCc1nc2c(Cl)cc(C(F)(F)F)cn2c1Cc1ccc(OC)cc1C | inconclusive: 18.4 µM [cytotoxic, partial curve, poor fit] | –
53 | CCOC(=O)N1CCN(C(=O)CCc2c(C)nc3c(c(C)nn3-c3ccc(C)c(C)c3)c2C)CC1 | inconclusive: 29.1 µM [cytotoxic, single point] | –
54 | COc1ccc(Nc2nc(NCc3cccs3)nc3ccsc23)cc1OC | inconclusive: 18.4 µM [cytotoxic, single point] | –
55 | CCN(C[C@H]1N[C@@](Cc2ccccc2)(C(=O)OC)[C@H]2C(=O)N(Cc3ccccc3)C(=O)[C@@H]12)C(=O)Nc1ccc(Cl)cc1 | inconclusive: 13 µM [cytotoxic, partial curve, poor fit] | –
56 | CCc1nc2ccc(C(=O)NCCCN3CCCC3=O)cn2c1N(C)C(=O)COc1ccccc1 | – | inactive: 4.08%
57 | COc1ccc(N2CCN(c3ncccc3C#N)CC2)cc1 | inconclusive: 23.1 µM [cytotoxic, single point] | –
58 | CC(C)c1ccc(OCC(=O)N(c2ccccn2)C2CCCCC2)cc1 | – | inactive: 0%
59 | COc1ccc(/C=N/Nc2nc(=O)[nH]nc2C)cc1OC | – | inactive: 19.9%
60 | O=C1CN(C(=O)COC(=O)C2CC(=O)N(Cc3ccco3)C2)c2ccccc2N1 (stereo not given) | inconclusive: 16.4 µM [rising, single point] | –
61 | COc1cccc(/C=N/NC(=O)CCNc2n[nH]c(=O)[nH]c2=O)c1OC | inconclusive: 32.6 µM [rising, single point] | –
62 | CSc1ccc(/C=C(\NC(=O)c2ccc(C)cc2)C(=O)Nc2cccc(C)c2)cc1 | inconclusive: 18.4 µM [rising, single point] | –
63 | CC(=O)c1ccc(NC(=O)c2sc3nc4n(c(=O)c3c2C)CCCCC4)cc1 | active: 18.4 µM | –
64 | CC(C)CN1C(=O)C(NC(=O)C2CC2)(C(F)(F)F)C2=C1CC(C)(C)CC2=O (stereo not given) | inconclusive: 5.8 µM [cytotoxic, partial curve, poor fit] | –
65 | CC(C)N1C(=O)CCC1C(=O)O (stereo not given) | inconclusive: 29.1 µM [rising, single point] | –
66 | CCCc1ccc(OCc2ccc(C(=O)Nc3ccccc3C(=O)OC)o2)cc1 | – | inactive: -5.64%
67 | CCc1ccc(CNC(=O)c2cccc(-n3c(C)nc4cccnc43)c2)cc1 | inconclusive: 2.91 µM [cytotoxic, full curve] | –
68 | Cc1ccc(-n2c(C)nc3c(cnn3-c3ccccc3)c2=O)cc1 | active: 16.4 µM | –
69 | CC(C)C(=O)NC(c1cccc([N+](=O)[O-])c1)c1c(O)ccc2ccccc12 (stereo not given) | – | inactive: 0%
70 | N=c1n(CC(=O)c2ccc(Br)s2)c2ccccc2n1Cc1ccccc1 | inconclusive: 29.1 µM [cytotoxic, single point] | –

Filtered by structure: the compounds so far with a CF3 group
Row | SMILES | Potency | activity change, negative = cytotoxicity
7 | Cc1nn(C)c(Oc2cccc(C(F)(F)F)c2)c1C=O | – | inactive: 5.68%
22 | O=[N+]([O-])c1ccc(S(=O)(=O)Nc2nnc(C(F)(F)F)s2)cc1 | inconclusive: 29.1 µM [rising, single point] | –
52 | CCCc1nc2c(Cl)cc(C(F)(F)F)cn2c1Cc1ccc(OC)cc1C | inconclusive: 18.4 µM [cytotoxic, partial curve, poor fit] | –
64 | CC(C)CN1C(=O)C(NC(=O)C2CC2)(C(F)(F)F)C2=C1CC(C)(C)CC2=O (stereo not given) | inconclusive: 5.8 µM [cytotoxic, partial curve, poor fit] | –
